# In publication PMC6831704:
# Results are given in words; binding and its absence hold for the method and conditions named. Binding seen in cells or lysates may run through a third protein. These calls come from enrichment with a bait or labelling near it, and not all partners need be listed.
# Target: Myc-BirA*-Tax-His (HTLV-1) (UniProt P03409)
# Experiment: proximity labelling; BioID: HEK293T cells transfected with BirA*-encoding vectors for 24 h, biotin 50 µM for 18 h; streptavidin pulldown on whole cell lysates, mass spectrometry; control: BirA* only; three replicas
substance,measurement,value
"Sequestosome-1 (SQSTM-1/p62), endogenous in HEK293T cells (from UniProt Q13501 1-440)",binding,binds
